Test results as given in paper PMC4599002, “The Potato Nucleotide-binding Leucine-rich Repeat (NLR) Immune Receptor Rx1 Is a Pathogen-dependent DNA-deforming Protein” (The Journal of Biological Chemistry, 2015).
Positions count from the first letter of the chain named. For some assays here: A weaker result is weaker than the reference pair of the same experiment. Protein sequences can lack the tags named with them. Construct, isoform or probe ends are uncertain for at least one entry. At least one verdict was read from the data and is not stated in words by the source.

How the values were obtained:
Test in all cases: EMSA
[1] = target: T1, Rx1(1-489) WT (CC-NB-ARC) (potato (introgressed from Solanum andigena)) (UniProt Q9XGF5); conditions: EMSA: 0.15 nM 32P nucleic acid, 20 mM Tris-HCl pH 8.0, 60 mM NaCl, 2 mM EDTA, 1 mM DTT, 10% glycerol, 0.1 mg/ml BSA, 20 min on ice, recombinant protein, residues 1-489, protein details: His6 (pET32c)
T1 sequence (looked up): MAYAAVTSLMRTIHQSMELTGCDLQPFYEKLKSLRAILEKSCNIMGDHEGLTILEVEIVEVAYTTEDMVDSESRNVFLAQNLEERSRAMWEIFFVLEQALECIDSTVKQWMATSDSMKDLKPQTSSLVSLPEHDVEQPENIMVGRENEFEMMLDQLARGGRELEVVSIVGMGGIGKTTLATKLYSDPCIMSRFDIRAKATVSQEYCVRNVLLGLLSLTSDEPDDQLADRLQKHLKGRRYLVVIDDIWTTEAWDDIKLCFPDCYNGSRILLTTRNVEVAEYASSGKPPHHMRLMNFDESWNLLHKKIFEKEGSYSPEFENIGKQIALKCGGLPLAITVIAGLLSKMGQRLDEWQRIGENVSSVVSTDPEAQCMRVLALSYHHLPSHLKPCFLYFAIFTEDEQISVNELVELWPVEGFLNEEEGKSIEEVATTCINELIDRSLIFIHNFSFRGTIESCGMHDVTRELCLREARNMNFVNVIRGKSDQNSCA

[2] = target: T2, Rx1(1-489) K176R (potato (introgressed from Solanum andigena)) (UniProt Q9XGF5); conditions: EMSA: 0.15 nM 32P nucleic acid, 20 mM Tris-HCl pH 8.0, 60 mM NaCl, 2 mM EDTA, 1 mM DTT, 10% glycerol, 0.1 mg/ml BSA, 20 min on ice, recombinant protein, residues 1-489, protein details: His6 (pET32c), label: 32P 5' end
T2 sequence (looked up): T1 sequence (looked up) with K176R

[3] = target: T3, Rx1-4Strep (potato (introgressed from Solanum andigena)) (UniProt Q9XGF5); conditions: 1 uM protein, binds, weaker than E. coli Rx1(1-489); EMSA: 0.15 nM 32P nucleic acid, 20 mM Tris-HCl pH 8.0, 60 mM NaCl, 2 mM EDTA, 1 mM DTT, 10% glycerol, 0.1 mg/ml BSA, 20 min on ice; recombinant protein; residues 1-937; protein details: C-terminal 4x StrepII; label: 32P 5' end; single-stranded DNA
T3 sequence (looked up): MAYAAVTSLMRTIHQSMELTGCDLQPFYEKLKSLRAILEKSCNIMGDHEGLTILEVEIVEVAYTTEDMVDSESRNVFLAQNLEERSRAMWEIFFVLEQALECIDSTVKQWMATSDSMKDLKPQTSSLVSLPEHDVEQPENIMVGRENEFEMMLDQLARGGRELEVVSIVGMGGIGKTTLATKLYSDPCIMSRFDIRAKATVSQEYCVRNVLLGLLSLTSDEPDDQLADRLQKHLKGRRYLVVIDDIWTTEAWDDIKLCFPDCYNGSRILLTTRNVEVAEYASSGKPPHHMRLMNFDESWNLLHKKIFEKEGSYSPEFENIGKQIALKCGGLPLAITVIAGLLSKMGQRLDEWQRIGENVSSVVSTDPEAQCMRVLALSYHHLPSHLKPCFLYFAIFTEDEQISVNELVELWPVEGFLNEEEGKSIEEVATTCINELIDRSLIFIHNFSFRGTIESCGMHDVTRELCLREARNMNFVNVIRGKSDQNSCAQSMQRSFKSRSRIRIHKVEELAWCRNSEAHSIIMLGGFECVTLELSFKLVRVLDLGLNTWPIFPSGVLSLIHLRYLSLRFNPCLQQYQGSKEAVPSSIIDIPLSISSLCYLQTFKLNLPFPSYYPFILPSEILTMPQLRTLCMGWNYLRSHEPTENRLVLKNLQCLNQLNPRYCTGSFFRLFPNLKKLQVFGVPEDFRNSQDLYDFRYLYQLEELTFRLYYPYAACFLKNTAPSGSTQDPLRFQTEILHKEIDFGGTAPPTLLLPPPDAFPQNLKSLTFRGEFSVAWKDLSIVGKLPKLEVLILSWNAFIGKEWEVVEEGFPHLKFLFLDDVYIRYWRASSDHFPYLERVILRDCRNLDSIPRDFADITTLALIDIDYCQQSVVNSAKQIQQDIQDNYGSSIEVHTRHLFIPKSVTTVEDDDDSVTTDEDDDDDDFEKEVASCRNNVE

PSiP-NB-ARC (Zea mays) = target: T4, PSiP-NB-ARC (Zea mays) (UniProt A0A1D6GX18); conditions: Kd in Table 1 not in material; EMSA: 0.15 nM 32P nucleic acid, 20 mM Tris-HCl pH 8.0, 60 mM NaCl, 2 mM EDTA, 1 mM DTT, 10% glycerol, 0.1 mg/ml BSA, 20 min on ice; recombinant protein; residues 178-505; label: 32P 5' end; single-stranded DNA
T4 sequence (looked up): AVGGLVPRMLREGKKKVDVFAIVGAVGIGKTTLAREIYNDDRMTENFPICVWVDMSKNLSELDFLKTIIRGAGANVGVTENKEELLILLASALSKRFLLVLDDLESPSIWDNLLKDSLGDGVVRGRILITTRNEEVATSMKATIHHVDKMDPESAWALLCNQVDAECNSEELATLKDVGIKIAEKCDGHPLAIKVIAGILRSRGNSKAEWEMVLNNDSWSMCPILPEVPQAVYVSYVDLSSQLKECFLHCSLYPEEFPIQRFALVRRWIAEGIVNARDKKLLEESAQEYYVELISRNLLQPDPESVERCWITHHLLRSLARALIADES

PSiP-NB (Zea mays) = target: T5, PSiP-NB (Zea mays) (UniProt A0A1D6GX18); conditions: binds with considerably lower affinity than NB-ARC, Kd in Table 1 not in material; EMSA: 0.15 nM 32P nucleic acid, 20 mM Tris-HCl pH 8.0, 60 mM NaCl, 2 mM EDTA, 1 mM DTT, 10% glycerol, 0.1 mg/ml BSA, 20 min on ice; recombinant protein; residues 177-339; protein details: His6 (pRSET-B); label: 32P 5' end; single-stranded DNA
T5 sequence (looked up): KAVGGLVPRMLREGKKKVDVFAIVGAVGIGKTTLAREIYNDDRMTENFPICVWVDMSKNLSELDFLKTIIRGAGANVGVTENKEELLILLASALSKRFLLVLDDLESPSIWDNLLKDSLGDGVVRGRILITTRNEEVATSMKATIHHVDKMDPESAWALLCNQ

[4] = label: 32P 5' end, single-stranded DNA
[5] = affinity did not correlate with increasing bubble size, label: 32P 5' end of strand 1, folded or branched DNA

GACGCTGCCGAATTCTGGCTTGCTAGGACATCTTTGCCCACGTTGACCC (double strand) [dsF12]
binding result ([1]; lower affinity than F12-ds/ds, label: 32P 5' end of strand 1): binds more weakly

GACGCTGCCGAATTCTGGCTTGCTAGGACATCTTTGCCCACGTTGACCC / TGGGTCAACGTGGGCAAAGATGTCCTAGCAATGTAATCGTCTATGACGTT / AACGTCATAGACGATTACA [F12-ds/ss]
binding result ([1]; lower affinity than F12-ss/ss, label: 32P 5' end of strand 1, folded or branched DNA): binds

GACGCTGCCGAATTCTGGCTTGCTAGGACATCTTTGCCCACGTTGACCC / TGGGTCAACGTGGGCAAAGATGTCCTAGCAATGTAATCGTCTATGACGTT / GCCAGAATTCGGCAGCGTC / AACGTCATAGACGATTACA [F12-ds/ds]
binding result ([1]; higher affinity than dsF12, label: 32P 5' end of strand 1, folded or branched DNA): binds

GACGCTGCCGAATTCTGGCTTGCTAGGACATCTTTGCCCACGTTGACCC [ssF12 (SS3)]
binding result [1, 4]: binds

TGGGTCAACGTGGGCAAAGATGTCCTAGCAATGTAATCGTCTATGACGTT (double strand) [SS1/SS2 dsDNA]
binding result ([2]; 1 uM ADP, 10 mM ZnCl2, no discriminatory influence of nucleotide): binds | binding result ([2]; 1 uM ATP, 10 mM ZnCl2, no discriminatory influence of nucleotide): binds | binding result ([2]; lower affinity than WT): binds more weakly

TGGGTCAACGTGGGCAAAGATGTCCTAGCAATGTAATCGTCTATGACGTT [SS1 ssDNA]
binding result [3]: binds more weakly | binding result (PSiP-NB-ARC (Zea mays)): binds | binding result ([2]; lower affinity than WT, single-stranded DNA): binds more weakly | binding result (PSiP-NB (Zea mays)): binds more weakly

TTTGGTCTAACTTTACCGCTACTAAATGCCGCGGATTGGTTTCGCTGAATCAGGTTATTA (double strand) [dsP1]
binding result ([1]; lower affinity than small bubbles, label: 32P 5' end of strand 1): binds more weakly

TTTGGTCTAACTTTACCGCTACTAAATGCCGCGGATTGGTTTCGCTGAATCAGGTTATTA / TAATAACCTGATTCAGCGAAACATTGTAGGTAAGCTTAGTAGCGGTAAAGTTAGACCAAA [dsP1-13]
binding result [1, 5]: binds

TTTGGTCTAACTTTACCGCTACTAAATGCCGCGGATTGGTTTCGCTGAATCAGGTTATTA / TAATAACCTGATTCAGCGAACCAATCGCAACCATTTAGTAGCGGTAAAGTTAGACCAAA [dsP1-5]
binding result ([1]; small bubble, higher affinity than linear dsDNA, label: 32P 5' end of strand 1, folded or branched DNA): binds

TTTGGTCTAACTTTACCGCTACTAAATGCCGCGGATTGGTTTCGCTGAATCAGGTTATTA / TAATAACCTGATTCAGCGAATGACCGATAACGTCCACTTGAGCGGTAAAGTTAGACCAAA [dsP1-20]
binding result [1, 5]: binds

TTTGGTCTAACTTTACCGCTACTAAATGCCGCGGATTGGTTTCGCTGAATCAGGTTATTA [ssP1]
binding result [1, 4]: binds

UGGGUCAACGUGGGCAAAGAUGUCCUAGCAAUGUAAUCGUCUAUGACGUU [SS1 ssRNA]
binding result ([2]; lower affinity than WT): binds more weakly
